# No constants are given. Whether binding was seen depends on the method and setting. In cells and extracts the contact can be indirect. Some binding calls cover weakened binding; strength is not graded here. Where a sequence is shown, tags or fusion partners need not be part of it.
# Sequences of proteins named here, by UniProt entry; tags and fusion partners are left off.
# UniProt O94477: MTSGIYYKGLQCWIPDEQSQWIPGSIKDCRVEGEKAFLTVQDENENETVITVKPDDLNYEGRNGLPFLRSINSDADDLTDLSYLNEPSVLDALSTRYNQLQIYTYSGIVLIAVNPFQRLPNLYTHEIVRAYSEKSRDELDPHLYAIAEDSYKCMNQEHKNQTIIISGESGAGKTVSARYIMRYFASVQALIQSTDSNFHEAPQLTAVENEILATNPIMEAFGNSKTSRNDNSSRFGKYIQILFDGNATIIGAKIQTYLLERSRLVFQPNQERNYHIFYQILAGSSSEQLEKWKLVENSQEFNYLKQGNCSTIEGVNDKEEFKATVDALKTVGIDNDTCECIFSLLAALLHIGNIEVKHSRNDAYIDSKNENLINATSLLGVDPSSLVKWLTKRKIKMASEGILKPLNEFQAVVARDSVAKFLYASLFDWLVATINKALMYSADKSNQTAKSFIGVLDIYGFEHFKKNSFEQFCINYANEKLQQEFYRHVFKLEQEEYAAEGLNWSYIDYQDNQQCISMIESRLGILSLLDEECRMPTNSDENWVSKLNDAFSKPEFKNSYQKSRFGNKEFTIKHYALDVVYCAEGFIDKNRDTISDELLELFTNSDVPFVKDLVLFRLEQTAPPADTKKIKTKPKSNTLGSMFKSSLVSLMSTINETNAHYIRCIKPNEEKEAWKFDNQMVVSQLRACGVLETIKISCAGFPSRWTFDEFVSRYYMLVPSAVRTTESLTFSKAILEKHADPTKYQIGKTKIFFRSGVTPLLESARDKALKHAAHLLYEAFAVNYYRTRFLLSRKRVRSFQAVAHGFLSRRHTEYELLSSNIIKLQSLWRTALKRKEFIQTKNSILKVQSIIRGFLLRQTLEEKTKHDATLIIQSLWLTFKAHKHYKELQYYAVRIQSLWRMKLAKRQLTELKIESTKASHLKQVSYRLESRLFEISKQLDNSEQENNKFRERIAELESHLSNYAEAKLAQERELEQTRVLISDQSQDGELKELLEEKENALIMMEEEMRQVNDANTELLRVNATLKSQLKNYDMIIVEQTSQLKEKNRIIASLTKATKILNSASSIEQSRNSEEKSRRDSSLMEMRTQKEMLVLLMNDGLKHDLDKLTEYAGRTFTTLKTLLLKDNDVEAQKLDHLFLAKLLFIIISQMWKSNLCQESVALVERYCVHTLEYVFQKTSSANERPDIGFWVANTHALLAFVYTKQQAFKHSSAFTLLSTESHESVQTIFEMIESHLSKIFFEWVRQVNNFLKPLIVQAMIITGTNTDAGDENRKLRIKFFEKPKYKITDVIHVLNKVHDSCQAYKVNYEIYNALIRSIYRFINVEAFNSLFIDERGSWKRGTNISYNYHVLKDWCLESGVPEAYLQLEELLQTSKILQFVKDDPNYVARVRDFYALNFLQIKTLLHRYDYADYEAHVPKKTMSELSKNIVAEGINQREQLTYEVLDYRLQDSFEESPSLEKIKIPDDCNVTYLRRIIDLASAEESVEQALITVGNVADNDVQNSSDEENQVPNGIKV
# Columns and labels:
# [1] = target: T1, Fus1^1-518-sfGFP (Fus1 N-terminus, aa 1-518) (S. pombe) (UniProt Q10719); assay: co-IP
# T1 sequence: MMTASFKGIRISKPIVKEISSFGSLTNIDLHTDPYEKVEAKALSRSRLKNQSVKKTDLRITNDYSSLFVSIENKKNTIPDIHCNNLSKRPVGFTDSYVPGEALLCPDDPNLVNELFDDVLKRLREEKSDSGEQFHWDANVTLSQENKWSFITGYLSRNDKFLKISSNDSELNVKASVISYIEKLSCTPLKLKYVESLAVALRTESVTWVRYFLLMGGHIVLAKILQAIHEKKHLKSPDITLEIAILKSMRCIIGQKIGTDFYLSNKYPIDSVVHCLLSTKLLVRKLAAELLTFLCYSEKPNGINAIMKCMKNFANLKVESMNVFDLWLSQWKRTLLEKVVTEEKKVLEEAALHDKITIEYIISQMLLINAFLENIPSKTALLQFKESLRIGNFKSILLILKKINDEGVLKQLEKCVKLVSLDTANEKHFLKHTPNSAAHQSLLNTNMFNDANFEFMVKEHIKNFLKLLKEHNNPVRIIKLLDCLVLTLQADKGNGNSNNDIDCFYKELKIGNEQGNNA
# [2] = target: T2, Fus1-sfGFP (full-length formin Fus1) (S. pombe) (UniProt Q10719); assay: co-IP
# T2 sequence: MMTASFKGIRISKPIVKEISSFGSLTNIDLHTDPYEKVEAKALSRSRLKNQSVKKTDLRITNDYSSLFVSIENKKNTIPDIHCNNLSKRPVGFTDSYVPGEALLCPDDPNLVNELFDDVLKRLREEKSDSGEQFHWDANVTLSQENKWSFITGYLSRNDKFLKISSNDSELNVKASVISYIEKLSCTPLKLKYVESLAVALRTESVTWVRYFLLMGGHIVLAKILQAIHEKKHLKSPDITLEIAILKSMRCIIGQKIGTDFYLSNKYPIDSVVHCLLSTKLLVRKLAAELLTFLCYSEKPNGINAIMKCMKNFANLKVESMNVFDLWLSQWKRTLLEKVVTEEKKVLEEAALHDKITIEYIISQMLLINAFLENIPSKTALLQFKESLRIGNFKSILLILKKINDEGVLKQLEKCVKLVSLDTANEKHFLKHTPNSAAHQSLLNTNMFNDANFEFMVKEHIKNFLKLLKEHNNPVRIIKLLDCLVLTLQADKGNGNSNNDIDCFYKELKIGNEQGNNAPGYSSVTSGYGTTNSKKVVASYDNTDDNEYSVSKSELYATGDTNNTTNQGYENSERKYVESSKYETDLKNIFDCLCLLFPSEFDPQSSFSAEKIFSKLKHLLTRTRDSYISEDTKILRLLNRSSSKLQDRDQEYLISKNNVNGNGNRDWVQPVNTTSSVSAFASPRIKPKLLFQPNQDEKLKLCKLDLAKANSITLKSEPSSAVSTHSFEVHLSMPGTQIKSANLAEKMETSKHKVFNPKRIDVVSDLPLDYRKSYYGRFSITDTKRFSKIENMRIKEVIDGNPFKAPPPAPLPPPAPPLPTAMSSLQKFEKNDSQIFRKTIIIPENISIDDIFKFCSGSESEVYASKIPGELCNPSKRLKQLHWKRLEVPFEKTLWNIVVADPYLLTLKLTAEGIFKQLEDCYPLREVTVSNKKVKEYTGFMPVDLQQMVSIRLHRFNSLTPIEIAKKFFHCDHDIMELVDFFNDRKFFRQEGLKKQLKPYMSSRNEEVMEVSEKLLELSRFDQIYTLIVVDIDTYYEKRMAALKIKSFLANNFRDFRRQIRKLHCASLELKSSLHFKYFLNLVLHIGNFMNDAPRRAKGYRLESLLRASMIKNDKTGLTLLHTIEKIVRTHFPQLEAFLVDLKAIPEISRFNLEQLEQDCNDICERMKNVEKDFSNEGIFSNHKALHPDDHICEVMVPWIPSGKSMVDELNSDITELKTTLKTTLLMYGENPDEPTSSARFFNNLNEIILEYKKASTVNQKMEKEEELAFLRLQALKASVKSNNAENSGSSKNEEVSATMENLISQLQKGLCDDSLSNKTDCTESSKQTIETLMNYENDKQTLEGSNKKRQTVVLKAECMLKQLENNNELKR
substance,measurement,setting,value
Myo52-3xmyc (type V myosin Myo52) (from UniProt O94477 1-1516),binding,[1],binds
same,binding,[2],binds

# Reference: paper doi:10.1101/2025.04.29.651207
